# Data from PubChem BioAssay (NCATS).
# By UniProt entry, the sequences of proteins in these tests, tags left out.
# UniProt P01375, whole entry, looked up: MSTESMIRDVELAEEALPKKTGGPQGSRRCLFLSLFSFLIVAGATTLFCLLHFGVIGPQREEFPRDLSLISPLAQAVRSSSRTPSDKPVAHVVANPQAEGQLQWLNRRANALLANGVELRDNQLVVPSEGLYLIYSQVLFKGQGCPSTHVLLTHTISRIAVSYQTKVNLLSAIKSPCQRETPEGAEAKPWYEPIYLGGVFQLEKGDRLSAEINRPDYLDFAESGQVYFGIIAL
# UniProt P10635, whole entry, looked up: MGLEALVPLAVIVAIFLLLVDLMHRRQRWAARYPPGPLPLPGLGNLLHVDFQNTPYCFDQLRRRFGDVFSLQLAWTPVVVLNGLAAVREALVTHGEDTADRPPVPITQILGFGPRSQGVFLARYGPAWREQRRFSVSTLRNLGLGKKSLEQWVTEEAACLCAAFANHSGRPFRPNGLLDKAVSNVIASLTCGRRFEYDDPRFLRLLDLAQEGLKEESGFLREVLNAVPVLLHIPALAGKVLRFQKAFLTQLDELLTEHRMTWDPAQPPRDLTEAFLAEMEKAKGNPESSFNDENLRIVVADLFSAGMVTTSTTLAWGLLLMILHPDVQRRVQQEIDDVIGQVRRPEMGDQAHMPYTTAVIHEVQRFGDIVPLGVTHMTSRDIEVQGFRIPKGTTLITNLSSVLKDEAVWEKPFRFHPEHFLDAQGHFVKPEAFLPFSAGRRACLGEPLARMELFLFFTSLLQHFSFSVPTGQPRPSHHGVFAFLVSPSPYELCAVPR
# Inconclusive results, whose numbers are uncertain, are shown with a selection of clear calls. For part of these data: Where the call is inconclusive, the potency comes from a doubtful curve fit. For part of these data: “Side channel” marks fits to a control or component signal instead of the main read-out. Active and inactive are the calls of the source. Unless noted, the call rests on the fitted dose curve; in most records, active means well fitted curve in the direction sought with a large enough effect; inconclusive means small, poorly fitted or top-dose-only effect, or another doubt; inactive means no such curve, though single readings can be large; an effect the other way counts as inactive or inconclusive.
# Legend:
# [1] = Cellular Toxicity (caspase-3) Jurkat (AID 655); settings: Jurkat caspase-3 activation, luminescence, DMSO = 0%, tamoxifen = 100%; at 92.2 µM (top of the series);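 further: cells exposed to compound for 16 h at 37 °C before reading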
# Method in brief: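 5000 Jurkat cells/well; compound 16 hr, 37 °C; Caspase-Glo 3/7 added, 20 min RT; luminescence read. Norm: DMSO = 0%, tamoxifen 100 uM = 100%. AC50, Hill model.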
# [2] = Cellular Toxicity (caspase-3) SHSY5Y (AID 657); settings: SH-SY5Y caspase-3 activation, DMSO zero, 10 µM staurosporine = 100%; at 91.7 µM (top of the series);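 further: cells exposed to compound for 16 hours at 37 °C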
# Method in brief: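 qHTS, SH-SY5Y, 1500 cells/well, 5 h pre-incubation 37 °C; compound 16 h 37 °C; Caspase-Glo 3/7 1 h RT; luminescence. Norm.: DMSO = 0, 10 uM staurosporine = 100%. Hill fit → AC50.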
# [3] = Cellular Toxicity (caspase-3) NIH 3T3 (AID 666);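 further: potency means the concentration at half of the fitted maximal effect; caspase signal read after 16 h compound exposure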
# Method in brief: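 Activity: caspase-3/7 induction, NIH 3T3 cells, 16 hr treatment at 37°C, luminescent Caspase-Glo detection; AC50 via Hill equation.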
# [4] = Cell Viability - LYMP1-002 - Assay at 40 hr (AID 994); settings: LYMP1-002 lymphoblastoid cell viability; at 92.2 µM (top of the series);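 further: 0% = DMSO only and full inhibition = 92 µM tetraoctylammonium bromide; nearly all actives have a fitted effect of over 60% in size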
# Method in brief: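 Concentration-dependent ATP loss after 40 hr treatment at 37 C defined toxicity; AC50 values were obtained by fitting the standard Hill equation.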
# [5] = qHTS assay for small molecule disruptors of the mitochondrial membrane potential - 1 hr assay (AID 651754; calls by dose curve; further: potency means the concentration at half of the fitted maximal effect; nearly all actives have a fitted effect of over 35% in size); settings: ratio change, negative = depolarisation: at 92.2 µM (top of the series)
# Method in brief: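 In this qHTS format, a 1 hr compound treatment of HepG2 cells precedes Mito-MPS staining, and membrane potential is judged from aggregate (red) against monomer (green) fluorescence intensity.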
# [6] = qHTS assay for small molecule disruptors of the mitochondrial membrane potential - 5 hr assay (AID 651755; calls by dose curve; further: potency means the concentration at half of the fitted maximal effect; nearly all actives have a fitted effect of over 40% in size); settings: JC-1-type ratio dye; ratio change, negative = disruption: at 92.2 µM (top of the series)
# Method in brief: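 Read-out: ratiometric Mito-MPS fluorescence, green monomer (ex 490/em 535) vs red mitochondrial aggregate (ex 540/em 590). HepG2 cells treated 5 hr at 37C before 30 min dye loading.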
# [7] = target: Tumor necrosis factor (Homo sapiens) (UniProt P01375); assay: qHTS assay to identify small molecules that stimulate Tumor Necrosis Factor-alpha (TNF-alpha) secretion (AID 651757; active means well fitted curve in the direction sought with a large enough effect in the signal ratio; inconclusive means small, poorly fitted or top-dose-only effect, or a change in a side signal; inactive means no such curve, though single readings can be large or run the other way; the % refers to the signal ratio; further: potency means the concentration at half of the fitted maximal effect); settings: Human cells, HTRF 665/615 ratio; activation (TNF-alpha secretion): at 92.2 µM (top of the series)
# Method in brief: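 Using 3000 THP-1 cells per well, compounds and controls were applied for 17 hrs at 37 C. Detection followed with two labeled anti-TNF-alpha antibodies (cryptate donor, XL665 acceptor) for 3 hr at room temperature, measured by TR-FRET.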
# [8] = MultiTox-Fluor Cytotoxicity Assay - LYMP1-002 - Dead Cells (AID 960); settings: LYMP1-002 lymphoblastoid cells, dead-cell protease fluorescence; cytotoxicity (dead cells): at 46.1 µM (top of the series);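 further: 0% = DMSO and 100% = tetraoctylammonium bromide; nearly all actives have a fitted effect of over 60% in size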
# Method in brief: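 Concentration-dependent increases in membrane-leaked protease activity are quantified in LYMP1-002 cells after 16 hr treatment; values are normalized against DMSO and tetraoctylammonium bromide (15 uM) controls and AC50 derived by Hill modeling.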
# [9] = Cell Viability - LYMP2-026 (AID 989);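 further: cells exposed to compound for 24 h at 37 °C; on the % scale 0 is the no-effect control and ±100 the full control effect; nearly all actives have a fitted effect of over 50% in size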
# Method in brief: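 Acute toxicity screen in complete culture medium, with 24 hr compound exposure at 37 C. Viability read as cellular ATP via luciferase reaction, with tetraoctylammonium bromide (6.4pM to 92 uM) as positive control.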
# [10] = target: Cytochrome P450 2D6 (Homo sapiens) (UniProt P10635); assay: qHTS Assay for Inhibitors and Substrates of Cytochrome P450 2D6 (AID 891);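 further: luciferin methyl ether substrate demethylated by CYP2D6 with NADPH regeneration; on the % scale 0 is the no-effect control and ±100 the full control effect; nearly all actives have a fitted effect of over 60% in size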
# Method in brief: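 Luminescent read-out of luciferin formed by 5 nM human CYP2D6 demethylating 30 uM Luciferin-ME EGE (Km level) over 60 min at room temperature after NADPH regeneration addition. Data normalized to full inhibition by 1.43 uM quinidine.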
# [11] = MultiTox-Fluor Cytotoxicity Assay - LYMP1-001 - Dead Cells (AID 946);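 further: 0% = DMSO and 100% = tetraoctylammonium bromide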
# Method in brief: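 In this qHTS, 15 uM tetraoctylammonium bromide defined 100% and DMSO defined basal activity. Lymphoblastoid cells (LYMP1-001, 2500 per well) received compound for 16 hr at 37 C before a fluorogenic dead-cell substrate readout at 485/520 nm.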
structure (smiles),measurement,setting,value
Cc1ccc2nc(-c3ccc(N)cc3)sc2c1S(=O)(=O)O,caspase-3 activation,[1],inactive: -10.6%
same,caspase-3 activation,[2],inactive: -8.69%
same,Potency,[3],"inconclusive: 25.1 µM [falling, partial curve]"
same,"viability change, negative = cytotoxic",[4],inactive: -7.96%
same,Potency,[5],"inconclusive: 11.2 µM [side channel, rising, full curve]"
same,Potency,[6],"inconclusive: 14.1 µM [side channel, rising, full curve]"
same,Potency,[7],active: 8.41 µM
c1ccc(Nc2ccccc2)cc1,caspase-3 activation,[1],inactive: 1.36%
same,Potency,[8],inactive
same,Potency,[9],inactive
Cn1ccc(O)c(C#N)c1=O,Potency,[10],inactive
C=CCn1c(=O)n(CC=C)c(=O)n(CC=C)c1=O,Potency,[11],inactive
